Experimental data as given in PMC12032302, “A20 attenuates oxidized self-DNA-mediated inflammation in acute kidney injury” (Signal Transduction and Targeted Therapy, 2025).
These are yes or no findings as the source states them, for the method shown. Binding seen in cells or lysates may run through a third protein. These calls come from enrichment with a bait or labelling near it, and not all partners need be listed.

Chains of the proteins cited; added tags and fusions are not shown.
UniProt Q9ES74: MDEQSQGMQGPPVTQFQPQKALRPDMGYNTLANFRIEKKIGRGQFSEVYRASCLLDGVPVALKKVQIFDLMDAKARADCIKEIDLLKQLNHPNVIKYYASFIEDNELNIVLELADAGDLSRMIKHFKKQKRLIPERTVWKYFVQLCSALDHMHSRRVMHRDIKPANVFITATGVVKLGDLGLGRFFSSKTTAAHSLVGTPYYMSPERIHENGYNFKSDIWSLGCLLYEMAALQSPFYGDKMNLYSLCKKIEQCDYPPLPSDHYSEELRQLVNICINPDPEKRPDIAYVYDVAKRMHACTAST

Target: T1, A20, endogenous in primary mouse BMDMs (mouse (endogenous in primary BMDMs)) (UniProt Q60769)
T1 sequence: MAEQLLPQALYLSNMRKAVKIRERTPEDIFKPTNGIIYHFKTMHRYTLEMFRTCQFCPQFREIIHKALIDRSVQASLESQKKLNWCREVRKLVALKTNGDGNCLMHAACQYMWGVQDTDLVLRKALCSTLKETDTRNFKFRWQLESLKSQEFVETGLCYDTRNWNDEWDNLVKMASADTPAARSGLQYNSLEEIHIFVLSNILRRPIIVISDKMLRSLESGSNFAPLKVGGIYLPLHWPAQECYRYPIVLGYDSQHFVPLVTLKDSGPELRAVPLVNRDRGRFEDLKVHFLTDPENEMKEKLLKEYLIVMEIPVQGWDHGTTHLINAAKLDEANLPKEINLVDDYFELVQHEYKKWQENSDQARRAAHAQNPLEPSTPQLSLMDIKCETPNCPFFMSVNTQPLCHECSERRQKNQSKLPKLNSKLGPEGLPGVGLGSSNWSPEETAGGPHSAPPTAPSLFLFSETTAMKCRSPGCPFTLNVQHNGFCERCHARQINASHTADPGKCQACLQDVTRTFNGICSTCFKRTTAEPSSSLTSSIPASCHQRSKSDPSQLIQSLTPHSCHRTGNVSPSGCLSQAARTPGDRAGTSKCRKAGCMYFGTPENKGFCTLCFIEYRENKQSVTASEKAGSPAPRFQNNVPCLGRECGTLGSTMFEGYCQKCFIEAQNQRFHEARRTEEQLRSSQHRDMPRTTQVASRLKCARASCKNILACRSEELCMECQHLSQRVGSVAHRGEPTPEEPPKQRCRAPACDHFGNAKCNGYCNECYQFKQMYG
Test: affinity purification with mass spectrometry; primary BMDMs with or without 30 µg ox-dsDNA90 for 6 h, mild lysis buffer; immunoprecipitation with A20 antibody and Protein A/G magnetic beads

binding: binds
Substance: NEK7, endogenous in primary mouse BMDMs (from UniProt Q9ES74 1-302)
